Over roughly 33,000 sequences, “E-score (-0.5 to 0.5)” has its median near -0.0059; the highest 2% begin near 0.26. The list shows a part of the results.

The target of the test is T1, Cin5 (UniProt P40917).
T1 sequence: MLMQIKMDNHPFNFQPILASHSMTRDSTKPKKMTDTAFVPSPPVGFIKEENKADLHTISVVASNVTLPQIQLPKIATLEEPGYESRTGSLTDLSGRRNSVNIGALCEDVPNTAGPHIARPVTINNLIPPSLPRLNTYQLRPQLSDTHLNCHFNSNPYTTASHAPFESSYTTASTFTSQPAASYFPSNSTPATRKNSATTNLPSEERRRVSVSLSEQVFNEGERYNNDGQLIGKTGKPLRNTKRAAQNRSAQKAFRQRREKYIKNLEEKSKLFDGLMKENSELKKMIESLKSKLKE
The test can be described thus: PBM E-score (8-mer binding enrichment) (E-score (-0.5 to 0.5)); higher = stronger / more preferred TF binding. To be noted: protein concentration: 100 nM; construct: GST-full length. Summed up: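 PURExpress in vitro transcription/translation supplied GST-tagged yeast transcription factors, either full-length or DNA-binding domain. Applied at about 100-200 nM to universal all-10-mer Agilent arrays double-stranded by primer extension, the bound protein was detected with fluorescent anti-GST. E-scores, modified Wilcoxon-Mann-Whitney statistics, were given by the Universal PBM Analysis Suite to ungapped eight-base words pooled with their reverse complements after masliner normalisation.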
In the case of AAGCTAGA, the “PBM E-score” value was -0.0103.

For AAAATGTG, the “PBM E-score” value was 0.208.

Turning to CCGTGATA, the “PBM E-score” value was -0.124.

GCGATGAC: the “PBM E-score” value was found to be 0.0938.

Turning to GAGTGGAC, the “PBM E-score” value was -0.0829.

AGGTTGGG: the “PBM E-score” value is -0.02.

In the case of AATCCACA, the “PBM E-score” value came out at 0.152.

For CCGTCAAC, the “PBM E-score” value is -0.0405.

CACCCCAG: the “PBM E-score” value is 0.102.

For the sequence AATATCCA, the “PBM E-score” value is 0.096.

As to AGTATGAC, the “PBM E-score” value worked out at 0.173.

Regarding TCACCCCA, the “PBM E-score” value is 0.188.

As to GTCGTGTA, the “PBM E-score” value stood at 0.0489.

Take AACCCACG: the “PBM E-score” value was -0.122.

Turning to ATATAGAT, the “PBM E-score” value was 0.207.

Consider AAGTAAGA, for which the “PBM E-score” value was found to be 0.0967.

Consider AAGGCACG, for which the “PBM E-score” value was -0.0138.

For AAATGTCC, the “PBM E-score” value was -0.169.

Turning to AATGGCGT, the “PBM E-score” value is 0.061.

AAATTCCC: the “PBM E-score” value is -0.0118.

For the sequence GCGCTACA, the “PBM E-score” value is -0.0801.

Regarding GGGGGATA, the “PBM E-score” value was -0.322.

In the case of ACACCCAT, the “PBM E-score” value was 0.149.

As for CATCTTTC, the “PBM E-score” value is 0.00885.

Take AACTTACA: the “PBM E-score” value was found to be 0.162.

As for CATAAATG, the “PBM E-score” value was -0.125.

Consider GCTAACGA, for which the “PBM E-score” value was 0.0476.

In the case of ACTCATCG, the “PBM E-score” value is -0.00039.

As to GACAGGAC, the “PBM E-score” value is -0.0829.

Take CGTGTCCC: the “PBM E-score” value is -0.143.

For the sequence GGCCAGGA, the “PBM E-score” value is -0.0739.

For the sequence AGCCAGAC, the “PBM E-score” value is -0.026.

Regarding AGGTAGTC, the “PBM E-score” value is -0.174.

GGCCTAGA: the “PBM E-score” value was -0.0235.

For ACTCTGAC, the “PBM E-score” value turned out to be 0.0108.

In the case of CGACATTA, the “PBM E-score” value was 0.115.

Take GTAGCCTA: the “PBM E-score” value is -0.335.

Turning to CGTAAAAC, the “PBM E-score” value is -0.123.

For the sequence GTAGCGAC, the “PBM E-score” value is -0.18.

For GCATTGAA, the “PBM E-score” value was found to be 0.117.

Regarding GTGAAACA, the “PBM E-score” value is 0.0592.

In the case of CCCCCAGG, the “PBM E-score” value was -0.413.

With ATGATTTC, the “PBM E-score” value came out at 0.238.

For ATCCTGGA, the “PBM E-score” value turned out to be 0.0802.

For GGTCCATA, the “PBM E-score” value is -0.0905.

As to CGCGTGAA, the “PBM E-score” value came out at 0.117.

Turning to GAACTGGA, the “PBM E-score” value was determined as 0.158.

As to TATGAAAA, the “PBM E-score” value worked out at 0.114.

With ATGGTCAG, the “PBM E-score” value was found to be 0.248.

For AGGATTAA, the “PBM E-score” value was 0.0964.

Take CAAACTCC: the “PBM E-score” value is 0.115.

For GATAGGCA, the “PBM E-score” value was -0.00464.

For AGAGACAA, the “PBM E-score” value was -0.0879.

For TGAGCTAA, the “PBM E-score” value was 0.0847.

Regarding AACATGGT, the “PBM E-score” value is 0.0935.

For the sequence GGAGCTAA, the “PBM E-score” value was -0.128.

As for AGGTAAGG, the “PBM E-score” value came to 0.0286.

For the sequence CGAGCCGC, the “PBM E-score” value came to 0.0468.

For the sequence ATCCTAAC, the “PBM E-score” value was 0.104.

In the case of ACAAATGA, the “PBM E-score” value came to 0.0902.

Regarding AGACTACT, the “PBM E-score” value is -0.0196.

For GGACGCCA, the “PBM E-score” value was -0.242.

Turning to GCCGACCA, the “PBM E-score” value was -0.153.

Consider CATAGGGG, for which the “PBM E-score” value was 0.0312.

With ACTTACAC, the “PBM E-score” value is -0.04.

Consider GACCATTA, for which the “PBM E-score” value turned out to be 0.0621.

On to AGCGCCTG, for which the “PBM E-score” value was -0.172.

In the case of AATGAGTC, the “PBM E-score” value was determined as 0.0897.

CAATGTCG: the “PBM E-score” value is 0.0452.

Take CTTAGCGA: the “PBM E-score” value came to 0.0248.

As for GCGTTGCC, the “PBM E-score” value is -0.143.

In the case of ATGCTTAG, the “PBM E-score” value was found to be 0.313.

Turning to AAGAAGCT, the “PBM E-score” value is -0.0487.

TACACAGA: the “PBM E-score” value came to 0.0644.

CCTTACAC: the “PBM E-score” value is -0.149.

Regarding TACCGAAA, the “PBM E-score” value is 0.0425.

As to AACAAGCG, the “PBM E-score” value was 0.206.

On to ATTGTTCC, for which the “PBM E-score” value was determined as 0.0946.

Take AGTCGGCA: the “PBM E-score” value is -0.0519.

In the case of GCGCAGCC, the “PBM E-score” value is -0.232.

With AGGCGGAG, the “PBM E-score” value is 0.0837.

Turning to AGAGCTGA, the “PBM E-score” value is -0.0469.

Turning to AGAGATTG, the “PBM E-score” value came to 0.0212.

For AAGCTCGG, the “PBM E-score” value worked out at 0.0328.

For ACCGCTTA, the “PBM E-score” value came out at 0.0972.

On to CAATATTA, for which the “PBM E-score” value came to 0.275.

Consider CTCCTAAA, for which the “PBM E-score” value is -0.234.

Consider TAGGAAAA, for which the “PBM E-score” value was -0.00948.

With ATGTAATC, the “PBM E-score” value was found to be 0.383.

As for GCGGCAAA, the “PBM E-score” value was -0.00918.

Take AATCCCCC: the “PBM E-score” value is -0.301.

Turning to CGAATGTA, the “PBM E-score” value was 0.133.

Consider AATCGCTG, for which the “PBM E-score” value is -0.0284.

With CAGCAAGA, the “PBM E-score” value was 0.0833.

Take CTGCAAAC: the “PBM E-score” value was -0.149.

Regarding CGCCATTA, the “PBM E-score” value was 0.129.

On to CCCTGTCC, for which the “PBM E-score” value is -0.33.

For the sequence AATGAAGC, the “PBM E-score” value came to 0.0233.

GACTTGAC: the “PBM E-score” value is -0.208.

With CCGTCTTA, the “PBM E-score” value was -0.197.

As to GGTGGTAC, the “PBM E-score” value is -0.21.

As for TATTTCGA, the “PBM E-score” value was 0.242.

For the sequence AACCAACG, the “PBM E-score” value was -0.0463.

For TCATCAGA, the “PBM E-score” value stood at 0.0449.

Turning to ACCCATGC, the “PBM E-score” value is 0.0388.

For the sequence AGACACCG, the “PBM E-score” value is -0.0873.

Turning to CTCTACCC, the “PBM E-score” value turned out to be 0.0497.

Regarding CTTTAAGC, the “PBM E-score” value was determined as 0.0443.

Take CTCGATCC: the “PBM E-score” value is -0.0163.

These data come from the supplement of paper PMC3334620.
